The source gives many values for each of these; only a part stands here.
Test system: Paecilomyces variotti (ATCC 22319)
Assay: Heat treatment of Paecilomyces variotti spores in ice tea with natamycin, visual growth
Type: cell-based
Design: key: growth (+); no growth (−)
Protocol: Commercially available ice tea (Lipton, peach flavor, non-carbonated, 1.5 L) was adjusted to high water hardness by adding 1 ml of a solution of 39 g CaCl2 and 27 g MgCl2 added to 934 g water. ⅓ of this ice tea preparation (the pH of which was 3.15) was left as-such, ⅓ of the preparation was enriched with 5 ppm natamycin and ⅓ of the preparation was enriched with 10 ppm natamycin. Samples of 5 ml were made from each preparation in 15 ml sterile plastic tubes. Of each preparation 8 samples were pre-heated to the desired pasteurization temperature using a water bath. Temperatures used were RT, 60, 65, 70, 75, 80, 85 and 90° C. When the desired temperature was reached, 100 μl of a 2500 spores/ml spore suspension of Aspergillus niger ATCC 9029AA was added to each tube. Subsequently, the samples were kept for 30 seconds at the temperature in question in the water bath. Next, the samples were cooled on ice to a temperature of 25° C. Samples were incubated at 25° C. and visually examined for growth (formation of mold flakes or turbidity) for two months. Additionally, samples were enumerated according to ISO protocol 21527-1.2008 on day 0 (before heat treatment) and day 1 (after heat treatment) to count immediate loss of viability. […] For the results, see Table 1. […] Example 1 was repeated however with Paecilomyces variotti (ATCC 22319, 1000 spores/ml) instead of Aspergillus niger.

Measured: growth (+) or no growth (−)

C[C@@H]1C/C=C/C=C/C=C/C=C/[C@H](O[C@@H]2O[C@H](C)[C@@H](O)[C@H](N)[C@@H]2O)C[C@@H]2O[C@](O)(C[C@@H](O)C[C@H]3O[C@@H]3/C=C/C(=O)O1)C[C@H](O)[C@H]2C(=O)O [natamycin]
−: T 70, natamycin 10 ppm, day 1 | T 70, natamycin 10 ppm, day 2 | T 70, natamycin 10 ppm, day 3 | T 70, natamycin 10 ppm, day 4 | T 70, natamycin 10 ppm, day 5 | T 70, natamycin 10 ppm, day 6 | T 70, natamycin 10 ppm, day 7 | T 70, natamycin 10 ppm, day 8 | T 75, natamycin 5 ppm, day 1 | T 75, natamycin 5 ppm, day 2 | T 75, natamycin 5 ppm, day 3 | T 75, natamycin 5 ppm, day 4 | T 75, natamycin 5 ppm, day 5 | T 75, natamycin 5 ppm, day 6 | T 75, natamycin 5 ppm, day 7 | T 75, natamycin 5 ppm, day 8 | T 75, natamycin 5 ppm, day 9 | T 75, natamycin 5 ppm, day 10 | T 75, natamycin 5 ppm, day 11 | T 75, natamycin 5 ppm, day 12 | T 75, natamycin 5 ppm, day 13 | T 75, natamycin 5 ppm, day 14 | T 75, natamycin 5 ppm, day 15 | T 75, natamycin 5 ppm, day 16 | T 75, natamycin 5 ppm, day 17 | T 75, natamycin 5 ppm, day 50 | T 75, natamycin 10 ppm, day 1 | T 75, natamycin 10 ppm, day 2 | T 75, natamycin 10 ppm, day 3 | T 75, natamycin 10 ppm, day 4 | T 75, natamycin 10 ppm, day 5 | T 75, natamycin 10 ppm, day 6 | T 75, natamycin 10 ppm, day 7 | T 75, natamycin 10 ppm, day 8 | T 75, natamycin 10 ppm, day 9 | T 75, natamycin 10 ppm, day 10 | T 75, natamycin 10 ppm, day 11 | T 75, natamycin 10 ppm, day 12 | T 75, natamycin 10 ppm, day 13 | T 75, natamycin 10 ppm, day 14 | T 75, natamycin 10 ppm, day 15 | T 75, natamycin 10 ppm, day 16 | T 75, natamycin 10 ppm, day 17 | T 75, natamycin 10 ppm, day 50 | T 80, natamycin 5 ppm, day 1 | T 80, natamycin 5 ppm, day 2 | T 80, natamycin 5 ppm, day 3 | T 80, natamycin 5 ppm, day 4 | T 80, natamycin 5 ppm, day 5 | T 80, natamycin 5 ppm, day 6 | T 80, natamycin 5 ppm, day 7 | T 80, natamycin 5 ppm, day 8 | T 80, natamycin 5 ppm, day 9 | T 80, natamycin 5 ppm, day 10 | T 80, natamycin 5 ppm, day 11 | T 80, natamycin 5 ppm, day 12 | T 80, natamycin 5 ppm, day 13 | T 80, natamycin 5 ppm, day 14 | T 80, natamycin 5 ppm, day 15 | T 80, natamycin 5 ppm, day 16 | T 80, natamycin 5 ppm, day 17 | T 80, natamycin 5 ppm, day 50 | T 80, natamycin 10 ppm, day 1 | T 80, natamycin 10 ppm, day 2 | T 80, natamycin 10 ppm, day 3 | T 80, natamycin 10 ppm, day 4 | T 80, natamycin 10 ppm, day 5 | T 80, natamycin 10 ppm, day 6 | T 80, natamycin 10 ppm, day 7 | T 80, natamycin 10 ppm, day 8 | T 80, natamycin 10 ppm, day 9 | T 80, natamycin 10 ppm, day 10 | T 80, natamycin 10 ppm, day 11 | T 80, natamycin 10 ppm, day 12 | T 80, natamycin 10 ppm, day 13 | T 80, natamycin 10 ppm, day 14 | T 80, natamycin 10 ppm, day 15 | T 80, natamycin 10 ppm, day 16 | T 80, natamycin 10 ppm, day 17 | T 80, natamycin 10 ppm, day 50 | T 85, natamycin 5 ppm, day 1 | T 85, natamycin 5 ppm, day 2 | T 85, natamycin 5 ppm, day 3 | T 85, natamycin 5 ppm, day 4 | T 85, natamycin 5 ppm, day 5 | T 85, natamycin 5 ppm, day 6 | T 85, natamycin 5 ppm, day 7 | T 85, natamycin 5 ppm, day 8 | T 85, natamycin 5 ppm, day 9 | T 85, natamycin 5 ppm, day 10 | T 85, natamycin 5 ppm, day 11 | T 85, natamycin 5 ppm, day 12 | T 85, natamycin 5 ppm, day 13 | T 85, natamycin 5 ppm, day 14 | T 85, natamycin 5 ppm, day 15 | T 85, natamycin 5 ppm, day 16 | T 85, natamycin 5 ppm, day 17 | T 85, natamycin 5 ppm, day 50 | T 85, natamycin 10 ppm, day 1 | T 85, natamycin 10 ppm, day 2 | T 85, natamycin 10 ppm, day 3 | T 85, natamycin 10 ppm, day 4 | T 85, natamycin 10 ppm, day 5 | T 85, natamycin 10 ppm, day 6 | T 85, natamycin 10 ppm, day 7 | T 85, natamycin 10 ppm, day 8 | T 85, natamycin 10 ppm, day 9 | T 85, natamycin 10 ppm, day 10 | T 85, natamycin 10 ppm, day 11 | T 85, natamycin 10 ppm, day 12 | T 85, natamycin 10 ppm, day 13 | T 85, natamycin 10 ppm, day 14 | T 85, natamycin 10 ppm, day 15 | T 85, natamycin 10 ppm, day 16 | T 85, natamycin 10 ppm, day 17 | T 85, natamycin 10 ppm, day 50 | T 90, natamycin 5 ppm, day 1 | T 90, natamycin 5 ppm, day 2 | T 90, natamycin 5 ppm, day 3 | T 90, natamycin 5 ppm, day 4 | T 90, natamycin 5 ppm, day 5 | T 90, natamycin 5 ppm, day 6 | T 90, natamycin 5 ppm, day 7 | T 90, natamycin 5 ppm, day 8 | T 90, natamycin 5 ppm, day 9 | T 90, natamycin 5 ppm, day 10 | T 90, natamycin 5 ppm, day 11 | T 90, natamycin 5 ppm, day 12 | T 90, natamycin 5 ppm, day 13 | T 90, natamycin 5 ppm, day 14 | T 90, natamycin 5 ppm, day 15 | T 90, natamycin 5 ppm, day 16 | T 90, natamycin 5 ppm, day 17 | T 90, natamycin 5 ppm, day 50 | T 90, natamycin 10 ppm, day 1 | T 90, natamycin 10 ppm, day 2 | T 90, natamycin 10 ppm, day 3 | T 90, natamycin 10 ppm, day 4 | T 90, natamycin 10 ppm, day 5 | T 90, natamycin 10 ppm, day 6 | T 90, natamycin 10 ppm, day 7 | T 90, natamycin 10 ppm, day 8 | T 90, natamycin 10 ppm, day 9 | T 90, natamycin 10 ppm, day 10 | T 90, natamycin 10 ppm, day 11 | T 90, natamycin 10 ppm, day 12 | T 90, natamycin 10 ppm, day 13 | T 90, natamycin 10 ppm, day 14 | T 90, natamycin 10 ppm, day 15 | T 90, natamycin 10 ppm, day 16 | T 90, natamycin 10 ppm, day 17 | T 90, natamycin 10 ppm, day 50 | T RT, natamycin 5 ppm, day 1 | T RT, natamycin 5 ppm, day 2 | T RT, natamycin 5 ppm, day 3 | T RT, natamycin 5 ppm, day 4 | T RT, natamycin 5 ppm, day 5 | T RT, natamycin 5 ppm, day 6 | T RT, natamycin 5 ppm, day 7 | T RT, natamycin 5 ppm, day 8 | T RT, natamycin 5 ppm, day 9 | T RT, natamycin 10 ppm, day 1 | T RT, natamycin 10 ppm, day 2 | T RT, natamycin 10 ppm, day 3 | T RT, natamycin 10 ppm, day 4 | T RT, natamycin 10 ppm, day 5 | T RT, natamycin 10 ppm, day 6 | T RT, natamycin 10 ppm, day 7 | T RT, natamycin 10 ppm, day 8 | T RT, natamycin 10 ppm, day 9 | T RT, natamycin 10 ppm, day 10
+: T RT, natamycin 5 ppm, day 10 | T RT, natamycin 5 ppm, day 11 | T RT, natamycin 5 ppm, day 12 | T RT, natamycin 5 ppm, day 13 | T RT, natamycin 5 ppm, day 14 | T RT, natamycin 5 ppm, day 15 | T RT, natamycin 5 ppm, day 16 | T RT, natamycin 5 ppm, day 17 | T RT, natamycin 5 ppm, day 50 | T RT, natamycin 10 ppm, day 11 | T RT, natamycin 10 ppm, day 12 | T RT, natamycin 10 ppm, day 13 | T RT, natamycin 10 ppm, day 14 | T RT, natamycin 10 ppm, day 15 | T RT, natamycin 10 ppm, day 16 | T RT, natamycin 10 ppm, day 17 | T RT, natamycin 10 ppm, day 50

Reference: US12102089B2, “Method for inactivating mold spores” (DSM IP ASSETS B.V., priority 2017, dated 2024)
